According to PubChem BioAssay AID1671190 (National Center for Advancing Translational Sciences (NCATS), 2021):
The campaign covered roughly 580,000 compounds. About 6,100 (1.1%) were called active. Inconclusive means that the source gave no clear call. Such entries were picked first, then a sample of the others. Calls follow the shape of the dose curve; as a rule, active = well fitted inhibition curve with a large enough effect; inconclusive = small, poorly fitted or top-dose-only effect, or another doubt; inactive = no such curve, though single readings can be large or run the other way. Potencies beside an inconclusive call are fits to weak or partial responses and may not hold up.
% is scaled to controls: 0 for no effect and ±100 for the full control effect; potency is read from the fitted curve at half-maximal effect.

Protein sequences, listed by entry. Tags and fused reporters are not part of them. Lines headed by an entry give the natural chain unless they say otherwise; changes in a name come on top.
UniProt P18054: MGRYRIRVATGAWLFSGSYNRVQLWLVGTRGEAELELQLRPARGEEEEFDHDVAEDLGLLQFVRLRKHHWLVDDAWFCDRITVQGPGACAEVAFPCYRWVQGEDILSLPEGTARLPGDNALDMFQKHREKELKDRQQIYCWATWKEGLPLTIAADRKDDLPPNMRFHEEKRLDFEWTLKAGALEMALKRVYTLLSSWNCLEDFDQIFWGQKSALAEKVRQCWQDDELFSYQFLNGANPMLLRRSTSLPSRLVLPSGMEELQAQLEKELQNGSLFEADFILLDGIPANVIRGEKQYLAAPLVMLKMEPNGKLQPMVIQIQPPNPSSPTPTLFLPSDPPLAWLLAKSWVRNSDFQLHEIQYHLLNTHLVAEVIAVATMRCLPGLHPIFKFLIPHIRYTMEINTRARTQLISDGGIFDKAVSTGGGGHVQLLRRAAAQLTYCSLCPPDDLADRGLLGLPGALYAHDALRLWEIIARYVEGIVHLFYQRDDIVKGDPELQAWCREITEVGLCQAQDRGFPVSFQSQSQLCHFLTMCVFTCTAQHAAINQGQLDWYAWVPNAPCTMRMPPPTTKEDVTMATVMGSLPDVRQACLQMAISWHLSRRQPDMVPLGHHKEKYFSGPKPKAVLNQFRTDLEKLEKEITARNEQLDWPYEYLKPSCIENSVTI

The compounds below were run against Polyunsaturated fatty acid lipoxygenase ALOX12 (Homo sapiens) (UniProt P18054) (assay: Primary qHTS assay for inhibitors of human arachidonate 12S-lipoxygenase (ALOX12): Round 2). Details: purified 12hLO, xylenol orange hydroperoxide absorbance; activity change, negative = inhibition: at 108 µM (top of the series) unless noted.
Summary of the method: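 Purified human 12hLO at 150 nM in 25 mM Hepes, 0.01% Triton X-100, pH 7.0, preincubated 15 min at room temperature with compound. Reaction started with 40 uM arachidonic acid, 30 min at room temperature. Hydroperoxide measured by Fe-xylenol orange, 573/405 nm absorbance ratio.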
`C=CCNC(=S)N/N=C/c1ccc(N(CC)Cc2ccccc2)cc1` was tested, and the Potency was active: 50.1 µM. `O=C(NC1CCCC1)C1C(c2ccc(C(F)(F)F)cc2)=Nc2ccccc2N1C(=O)c1ccccc1` (stereo not given) was tested, and the Potency was inconclusive: 4.47 µM [inhibitor, full curve, poor fit]. In the case of `COCc1nc2nc(-c3ccccc3)c(Nc3ccc(F)cc3)cc2n1C`, the Potency is reported as inconclusive: 79.4 µM [inhibitor, partial curve]. With `CCOC(=O)C(=CNNc1cccc(Cl)c1)C(=O)OCC` the Potency was active: 12.6 µM. For `COc1ccc(CCNC(=O)Cn2nc(C)c3c(C)n(-c4ccc(C)cc4)nc3c2=O)c(OC)c1`, the Potency was inconclusive: 89.1 µM [inhibitor, partial curve, poor fit]. In the case of `CCOC(=O)C(=O)NNc1cccc(C)c1C`, the Potency is reported as inconclusive: 44.7 µM [inhibitor, partial curve, poor fit]. For `COc1cc(NC(=O)c2nccnc2C(=O)O)cc(OC)c1`, the Potency was active: 4.47 µM. In the case of `Cc1cccc(NC(=O)Cn2c(C)c(C#N)c3ccccc32)c1C`, the Potency is reported as inconclusive: 35.5 µM [inhibitor, partial curve, poor fit]. In the case of `Brc1ccc(-c2noc(-c3ccccc3Br)n2)o1`, the Potency is reported as inconclusive: 31.6 µM [inhibitor, partial curve, poor fit]. With `CCC(c1nnnn1Cc1ccco1)N(Cc1cc2cc(OC)ccc2[nH]c1=O)C1CCCCC1` (stereo not given) the Potency was inconclusive: 4.47 µM [inhibitor, full curve, poor fit]. `COc1ccc(C(=O)Nc2ccc(NC(=O)c3cccc(F)c3)cn2)cc1` was tested, and the Potency was inconclusive: 44.7 µM [inhibitor, partial curve, poor fit]. With `COc1cc2ncnc(NCc3ccccc3)c2cc1OC` the “activity change, negative = inhibition” value was inactive: 0%. `C[C@@H]1CCCCO[C@H](CN(C)Cc2ccncc2)[C@@H](C)CN([C@H](C)CO)C(=O)c2cc(N(C)C)ccc2O1` was tested, and the Potency was inconclusive: 100 µM [inhibitor, single point]. For `CCOc1ccc(CCNC(=O)c2cccn2-c2nnc(N3CCCC3)s2)cc1OCC`, the “activity change, negative = inhibition” value was inactive: 1.08%. In the case of `Brc1ccc2[nH]c3c(c2c1)CCCC3`, the Potency is reported as inconclusive: 1 µM [inhibitor, full curve, poor fit]. For `CN(C)c1nc(SCC(=O)Nc2ccc(Cl)c(Cl)c2)nc(N2CCOCC2)n1`, the Potency was inconclusive: 50.1 µM [inhibitor, partial curve, poor fit]. In the case of `O=Cc1c(-c2ccc(Br)cc2)[nH]c2ccccc12`, the Potency is reported as inconclusive: 2.51 µM [inhibitor, full curve, poor fit]. For `O=C(c1ccco1)N1CCN(c2ncnc3scc(-c4ccc(F)cc4)c23)CC1`, the “activity change, negative = inhibition” value was inactive: -5.14%. In the case of `O=C(N/N=C/c1ccc(O)c(O)c1)C1c2ccccc2Oc2ccccc21`, the Potency is reported as inconclusive: 1.26 µM [inhibitor, full curve, poor fit]. With `Cc1nn(Cc2ccccc2)c(C)c1NC(=O)COCc1cc(-c2ccco2)on1` the Potency was inconclusive: 17.8 µM [inhibitor, single point]. For `CN1C/C(=C/c2ccccc2[N+](=O)[O-])C(=O)/C(=C\c2ccccc2[N+](=O)[O-])C1`, the Potency was inconclusive: 50.1 µM [inhibitor, partial curve, poor fit]. `Cc1nc2ccc(C(=O)NC(C)CCCC(C)C)cc2nc1C` (stereo not given) was tested, and the “activity change, negative = inhibition” value was inactive: -13.2%. In the case of `COc1ccccc1-c1sc2cc3c(cc2c1C#Cc1cncn1C)OCO3`, the “activity change, negative = inhibition” value is reported as inactive: -3.81%. With `CC(Oc1ccccc1)C(=O)N1CCC(n2cc(-c3nc(-c4ccccc4)no3)nn2)CC1` (stereo not given) the Potency was inconclusive: 7.94 µM [inhibitor, full curve]. With `COC(=O)c1ccc(C(=O)Oc2ccc(C(C)=O)cc2)cc1` the Potency was inconclusive: 141 µM [inhibitor, single point]. In the case of `CCOc1cc(C2C(C(=O)OC(C)C)=C(C)Nc3nc4ccccc4n32)ccc1O` (stereo not given), the activity change, negative = inhibition is reported as inconclusive: -37.6% [inhibitor]. For `CCCc1c(C)[nH]c2c(Br)cccc2c1=O`, the Potency was inconclusive: 112 µM [inhibitor, partial curve, poor fit]. `COc1ccccc1CCC(=O)N1CCC2(CC1)NC(=O)N(c1ccc(F)cc1)N2` was tested, and the Potency was active: 3.16 µM. `COc1ccc(C(=O)Nc2ccc(N3CCN(S(C)(=O)=O)CC3)cc2)cc1OC` was tested, and the Potency was inconclusive: 39.8 µM [inhibitor, partial curve, poor fit]. With `COc1ccc(-c2noc(-c3cc(C4CC4)[nH]n3)n2)cc1OC` the “activity change, negative = inhibition” value was inactive: 7.55%. `CSc1nn(Cc2ccc(F)cc2)c(N)c1S(=O)(=O)c1ccc(Cl)cc1` was tested, and the Potency was inconclusive: 56.2 µM [inhibitor, partial curve, poor fit]. With `Cc1ccc(NS(=O)(=O)c2ccc(Br)cc2)nc1` the “activity change, negative = inhibition” value was inactive: -7.8%. With `OCCN1CCN(CC(O)COc2ccc(Cl)cc2)CC1` (stereo not given) the Potency was inconclusive: 44.7 µM [inhibitor, partial curve, poor fit]. For `CCOc1ccc(C(=O)Nc2cccc(-c3nc4ccccc4o3)c2)cc1[N+](=O)[O-]`, the Potency was inconclusive: 112 µM [inhibitor, partial curve, poor fit]. `O=C(NCCCc1ccccc1)c1cnc2n(c1=O)CCS2` was tested, and the “activity change, negative = inhibition” value was inactive: -1.44%. With `OCC1(O)CCCN(Cc2cnc(NCc3ccccc3)nc2)C1` (stereo not given) the “activity change, negative = inhibition” value was inactive: -12.5%. `CCCCCCCCCCCCOC(=O)C[N+](C)(C)C` was tested, and the Potency was inconclusive: 31.6 µM [inhibitor, partial curve, poor fit]. For `Cc1ccccc1C(C(=O)NC1CCCC1)N(C(=O)Cn1cnc2ccccc21)c1cccc(F)c1` (stereo not given), the Potency was inconclusive: 17.2 µM [inhibitor, partial curve, poor fit]. `COC(=O)CSc1cc(C(=O)c2nccn2C)c2ccccc2n1` was tested, and the Potency was inconclusive: 11.2 µM [inhibitor, full curve, poor fit]. For `NS(=O)(=O)c1ccc(CCNC(=O)CSc2nc3ccsc3c(=O)n2CCCCCC(=O)O)cc1`, the “activity change, negative = inhibition” value was inactive: -0.108%. For `COc1cc(CC2COC(c3ccc(O)c(OC)c3)C2COC(C)=O)ccc1O` (stereo not given), the Potency was inconclusive: 56.2 µM [inhibitor, partial curve, poor fit]. With `Cc1cc(O)c(C(C)C)cc1N=Nc1ccccc1C(=O)O` the “activity change, negative = inhibition” value was inactive: 16.6%. With `Cc1ccc(S(=O)(=O)CC(O)CN2CCCC2=O)cc1` (stereo not given) the “activity change, negative = inhibition” value was inactive: -0.939%. `O=C(NC(=S)N1CCN(C/C=C/c2ccccc2)CC1)c1cccnc1` was tested, and the Potency was inconclusive: 1.58 µM [inhibitor, partial curve, poor fit]. In the case of `COC(=O)c1ccc(COC(=O)C2CCN(S(=O)(=O)c3ccccc3C(=O)OC)CC2)cc1`, the Potency is reported as inconclusive: 89.1 µM [inhibitor, single point]. In the case of `C[N+](C)(C)CCNC(=O)c1cc[n+](Cc2ccccc2)c(/C=N/O)c1`, the Potency is reported as inconclusive: 56.2 µM [inhibitor, partial curve, poor fit]. In the case of `COc1ccc(CCCc2nnc(SCc3nc4ccccc4c(=O)[nH]3)n2C)cc1C`, the Potency is reported as inconclusive: 44.7 µM [inhibitor, partial curve, poor fit]. In the case of `O=C(O)c1ccccc1N/N=C/c1c(Sc2nnnn2-c2ccccc2)nc2ccccn2c1=O`, the “activity change, negative = inhibition” value is reported as inactive: 21.6%. In the case of `CN(c1cc(=O)c2ccnc(-c3ccc(O)c(F)c3)c2o1)C1CCOCC1`, the Potency is reported as inconclusive: 56.2 µM [inhibitor, partial curve]. In the case of `Cn1cc(/C=C(\NC(=O)c2ccccc2)C(=O)NCCCN2CCOCC2)c2ccccc21`, the “activity change, negative = inhibition” value is reported as inactive: -25.8%. `CCCCC1=CC2=CC(=O)C(C)(OC(=O)CC)C(=O)C2=CN1C1CCCCC1` (stereo not given) was tested, and the Potency was inconclusive: 79.4 µM [inhibitor, partial curve, poor fit]. With `O=C(c1ccc(N2CCN(C3CC(=O)N(Cc4cccs4)C3=O)CC2)cc1)c1cccnc1` (stereo not given) the “activity change, negative = inhibition” value was inactive: 1.35%. `CCOC(=O)c1c(C)[nH]c(-c2csc(N)n2)c1C` was tested, and the Potency was inconclusive: 50.1 µM [inhibitor, partial curve, poor fit]. With `O=C(O)CCC(=O)N1CCOC2(CCN(C(=O)c3ccccc3)CC2)C1` the Potency was inconclusive: 3.16 µM [inhibitor, full curve]. For `Cc1ccc(C(=O)CC2(O)C(=O)N(Cc3ccccc3)c3ccc(Br)cc32)cc1` (stereo not given), the Potency was inconclusive: 44.7 µM [inhibitor, partial curve, poor fit]. With `COC(=O)/C(=C\c1ccc([N+](=O)[O-])cc1)NC(=O)c1ccccc1` the Potency was inconclusive: 79.4 µM [inhibitor, single point]. For `CCN1CCN(Cc2coc3ccc(C)cc3c2=O)CC1`, the Potency was inconclusive: 15.8 µM [inhibitor, full curve, poor fit]. In the case of `O=C(COC(=O)c1ccc(S(=O)(=O)NCc2ccco2)cc1)c1ccc(F)cc1`, the Potency is reported as inconclusive: 126 µM [inhibitor, single point]. `O=C(COC(=O)c1cc(-c2cccs2)nn1-c1ccccc1)Nc1ccc(Cl)c([N+](=O)[O-])c1` was tested, and the Potency was inconclusive: 3.16 µM [inhibitor, full curve, poor fit]. `CCCCC(c1nnnn1CCOC)N1CCN(c2cccc(OC)c2)CC1` (stereo not given) was tested, and the Potency was inconclusive: 31.6 µM [inhibitor, full curve, poor fit]. For `C/C(=N\NC(=O)c1ccccc1F)c1cccc(NC(=O)c2ccccc2)c1`, the “activity change, negative = inhibition” value was inactive: 3.05%. In the case of `Cc1ccc2nc(=O)c(NNc3ccccc3)cnc2c1`, the Potency is reported as inconclusive: 50.1 µM [inhibitor, partial curve, poor fit]. With `COc1cccc(S(=O)(=O)NCc2ccc(C(=O)NCc3ccco3)cc2)c1` the Potency was inconclusive: 44.7 µM [inhibitor, partial curve]. `CCc1cc2c(NCC3CCCO3)ncnc2s1` (stereo not given) was tested, and the Potency was inconclusive: 35.5 µM [inhibitor, single point]. In the case of `CCCCOC(=O)c1ccc(NC(=O)/C(C#N)=C/c2ccc(C)o2)cc1`, the Potency is reported as inconclusive: 56.2 µM [inhibitor, partial curve, poor fit].
